Only a part is listed here, and it is no random draw. At the low end of the ranking, values are background and their order means little.
Target: T1, EHF (UniProt Q9NZC4)
T1 sequence: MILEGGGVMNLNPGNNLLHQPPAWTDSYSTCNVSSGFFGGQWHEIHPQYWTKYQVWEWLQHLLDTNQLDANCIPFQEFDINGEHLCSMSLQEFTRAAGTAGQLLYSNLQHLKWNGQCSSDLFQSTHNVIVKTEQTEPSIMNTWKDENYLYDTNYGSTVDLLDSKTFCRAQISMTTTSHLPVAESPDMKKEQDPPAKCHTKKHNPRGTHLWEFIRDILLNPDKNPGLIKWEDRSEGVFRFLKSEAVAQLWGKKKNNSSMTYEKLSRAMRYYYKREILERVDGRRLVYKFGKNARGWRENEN
Test: DAPPL (digital affinity profiling via proximity ligation, sequencing)
Conditions: 10 mM Tris-HCl pH 7.5, 50 mM NaCl, 1 mM DTT, 4% glycerol, room temperature, 30 min; GST-TFs on glutathione beads, 16-mer random dsDNA library, 0.1% …; high values mean tight binding; double strand, one strand shown; scale: fold enrichment (6-mer frequency, TF over GST control)

Protein sequences, listed by entry. Tags and fused reporters are not part of them. Lines headed by an entry give the natural chain unless they say otherwise; changes in a name come on top.
UniProt Q01892: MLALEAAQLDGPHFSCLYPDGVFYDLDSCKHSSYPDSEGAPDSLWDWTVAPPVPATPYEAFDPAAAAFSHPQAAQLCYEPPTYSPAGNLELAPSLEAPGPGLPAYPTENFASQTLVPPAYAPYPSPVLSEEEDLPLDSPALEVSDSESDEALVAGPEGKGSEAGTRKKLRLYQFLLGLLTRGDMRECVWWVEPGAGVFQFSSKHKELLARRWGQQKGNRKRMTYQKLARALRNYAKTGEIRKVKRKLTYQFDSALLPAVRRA

Sequence	binding signal
TGATTG	0.99
CTCGAG	1.21
GTTAAA	0.998
TTAGCT	1.2
ATGGTC	1.47
TCCCCC	1.52
TACAAA	1.2
TGACTG	0.969
ATGCCA	1.05
TGCTGG	1.11
CCTCTG	1.67
ATAAGA	0.991
TTTTTC	1.23
CTGTAT	1.3
CATTGC	1.15
AATATG	1.09

Sequence	binding signal
CAACTT	1.54
CCTGCG	1.31
ATTGTT	1.53
AGCGCC	1.13
GCACTG	1.12
CCGGTT	1.97
GCTCTT	1.29
ATACGA	1.12
TGGGGT	1.03
TCTTCG	1.31
TAGCCT	1.26
CTAGCC	1
GAAAAC	1.09
CGCGAT	0.937
ACCTAT	1.21

Target: SPIB (UniProt Q01892)
Test: as above
Conditions: 10 mM Tris-HCl pH 7.5, 50 mM NaCl, 1 mM DTT, 4% glycerol, room temperature, 30 min; GST-TFs on glutathione beads, 16-mer random dsDNA library, 0.1% …; high values mean tight binding; double strand, one strand shown; scale: fold enrichment (6-mer frequency, TF over GST control)

Sequence	binding signal
CCTAAT	1.44
CCGTCT	1.45
TATCCA	1.36
AGATCT	0.978
GATGTA	1.31
TCCAAA	1.17
CACACC	0.972
TATGCC	1.26
CGTATC	1.2

From paper PMC7862700
